Results of single-concentration screens

Protein sequences, listed by entry. Tags and fused reporters are not part of them. Residues count along the entry.
UniProt P9WPC5, whole entry: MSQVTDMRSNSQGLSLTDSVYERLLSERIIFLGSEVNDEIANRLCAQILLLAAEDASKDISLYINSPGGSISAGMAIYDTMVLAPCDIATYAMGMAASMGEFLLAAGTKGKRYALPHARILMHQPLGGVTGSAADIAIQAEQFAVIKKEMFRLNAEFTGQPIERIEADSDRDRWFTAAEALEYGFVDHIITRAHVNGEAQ
UniProt P9WPC3, whole entry partner: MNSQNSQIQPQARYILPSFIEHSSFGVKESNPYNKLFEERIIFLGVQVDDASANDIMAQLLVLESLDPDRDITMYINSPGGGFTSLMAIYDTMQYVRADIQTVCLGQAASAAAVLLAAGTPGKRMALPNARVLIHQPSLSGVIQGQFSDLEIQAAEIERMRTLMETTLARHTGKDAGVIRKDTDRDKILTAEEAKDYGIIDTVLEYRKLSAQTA
UniProt P9WNZ1, whole entry: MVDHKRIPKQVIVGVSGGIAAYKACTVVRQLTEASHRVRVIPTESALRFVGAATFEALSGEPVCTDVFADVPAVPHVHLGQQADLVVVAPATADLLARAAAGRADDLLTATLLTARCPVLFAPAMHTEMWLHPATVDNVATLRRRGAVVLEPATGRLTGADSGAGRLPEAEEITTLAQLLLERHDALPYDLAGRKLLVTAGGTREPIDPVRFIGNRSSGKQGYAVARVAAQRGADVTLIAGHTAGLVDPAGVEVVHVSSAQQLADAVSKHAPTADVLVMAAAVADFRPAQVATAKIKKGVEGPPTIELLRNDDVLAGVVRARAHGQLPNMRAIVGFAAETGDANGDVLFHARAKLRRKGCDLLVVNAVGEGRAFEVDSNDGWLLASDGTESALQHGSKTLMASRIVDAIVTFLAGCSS
UniProt Q8IDJ8, 1-583: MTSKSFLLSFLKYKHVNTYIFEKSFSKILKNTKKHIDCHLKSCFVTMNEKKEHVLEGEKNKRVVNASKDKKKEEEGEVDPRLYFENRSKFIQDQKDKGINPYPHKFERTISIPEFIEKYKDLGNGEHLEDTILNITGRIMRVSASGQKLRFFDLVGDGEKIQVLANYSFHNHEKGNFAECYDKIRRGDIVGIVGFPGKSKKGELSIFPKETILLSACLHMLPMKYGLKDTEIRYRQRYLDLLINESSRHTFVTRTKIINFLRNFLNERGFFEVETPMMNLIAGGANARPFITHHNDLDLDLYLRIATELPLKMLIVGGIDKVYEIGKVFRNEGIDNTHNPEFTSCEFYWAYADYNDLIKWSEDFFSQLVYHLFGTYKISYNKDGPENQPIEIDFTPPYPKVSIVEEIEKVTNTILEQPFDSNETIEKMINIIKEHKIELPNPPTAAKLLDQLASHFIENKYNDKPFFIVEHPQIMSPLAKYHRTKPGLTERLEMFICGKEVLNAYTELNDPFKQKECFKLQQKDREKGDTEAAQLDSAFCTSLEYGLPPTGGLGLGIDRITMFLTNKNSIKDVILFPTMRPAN

ClpP1P2: 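Protease assay of ClpP1P2, read by the AMC dye that it sets free. Target: ClpP1P2, Mycobacterium tuberculosis (UniProt P9WPC5 and UniProt P9WPC3). Concentration: 50 µM. Higher reads as stronger inhibition, judged from the few compounds that gave an IC50. Most other retested compounds had strongly negative values. Of about 69,000 compounds tested this way, about 10 (0.015%) reached 50% or more in at least one test.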
CoaBC: 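Coenzyme A biosynthesis protein CoaBC, Mycobacterium tuberculosis (UniProt P9WNZ1). Enzyme assay of CoaBC with a phosphate dye (Biomol Green) read at 650 nm. Tested at 30 µM. Direction is inferred from only a few compounds that gave an IC50; most scored high, so higher reads as stronger inhibition. Most strong results did not repeat in a second test. Of about 67,000 compounds tested this way, about 40 (0.06%) reached 50% or more in at least one test.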
PfKRS1: 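Enzyme assay of the cytosolic lysyl-tRNA synthetase in 384-well plates, read by luminescence. Target: Lysine-tRNA ligase, Plasmodium falciparum 3D7 (UniProt Q8IDJ8). Compounds at 30 µM. Higher reads as stronger inhibition, judged from the few compounds that gave an IC50. Size under these conditions: about 69,000 compounds, about 49 of them at 50% or above in at least one test.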

The filed quantity is “Percent Effect” (%).
How 0% and 100% were set is not recorded. Most values in the screen are low, and negative values occur.
Compounds were drawn at random from those tested, without regard to their results.
A dash means the value is not listed here; it may have been measured.

Compound | ClpP1P2 | CoaBC | PfKRS1
O=C(Cc1cccnc1)NC1COc2ccccc2C1=O (centres unmarked) | -9.54 | -0.2066 | 2.305
Cc1ccc(C(=O)N2CCOCC2C(N)=O)c(F)c1 (centres unmarked) | 3.219 | -2.197 | -2.482
CCSc1ccc(C(=O)N2CCC3(CCC(=O)N(C)C3)CC2)s1 | -14.33 | 9.877 | 1.001
Cc1cccc(N2CCCN=C2NC(=O)c2cccc(Cl)c2)c1 | 13.18 | -1.617 | 5.645
Cn1ccc2ccc(C(=O)Nc3nc[nH]n3)cc21 | -13.98 | 2.532 | -1.399
COc1cccc(OCC2CCCN(C3CCN(C(C)=O)CC3)C2)c1 (centres unmarked) | 3.753 | -4.904 | 1.758
CCc1ccc(-n2nnc(C(=O)O)c2-c2ccccn2)cc1 | 8.357 | 3.788 | 1.576
Cc1cc(N(C)C)nc(N2CCN(Cc3nccn3C)CC2)n1 | 7.302 | 6.114 | 4.17
O=C(O)c1cccc2c(Br)cccc12 | 3.833 | 1.636 | 3.89
NC(=O)c1cccnc1N1C[C@@H]2CC[C@H](C1)N(Cc1ccccn1)C2=O | 0.9674 | 1.018 | 11.75
CCS(=O)(=O)NCCCNCc1c(C)nn(C)c1N(C)C | 6.147 | -0.2632 | -1.64
COc1ccc(-n2ncc(C(C)NC3CCSCC3)c2C)cc1 (centres unmarked) | -4.733 | -8.636 | -1.604
CCn1ccnc1CN1CCN(C(C)C(=O)N2CCC(C)CC2)CC1 (centres unmarked) | 14.35 | -5.059 | -0.04983
Cc1cc(C(=O)N2CCn3cc(CN4CCN(C)CC4)nc3C2)no1 | 13.43 | 1.75 | 2.15
Cc1cc(CN(C)Cc2ncc(C(C)(C)C)o2)no1 | 18.27 | -1.347 | -4.482
Cc1c[nH]nc1C1CCCN(c2cnccn2)C1 (centres unmarked) | -29.24 | -7.895 | -0.6691
O=c1[nH]c(CCN2CCCC2Cn2cccn2)nc2ccccc12 (centres unmarked) | -12.07 | 10.68 | 1.954
CCN(Cc1cnn(C)c1)C(=O)c1ccc(C)c(N2CCNC2=O)c1 | 0.907 | 5.696 | 4.766
CC(C)CCN1CCc2c(C(=O)N(C)Cc3ccccn3)nn(C)c2C1 | 16.13 | - | 1.625
CN(C)CCN1C(=O)CCC12CCN(Cc1cccs1)CC2 | -3.324 | 3.218 | 10.65
CCN1CCN(S(=O)(=O)c2cn(C(C)C)cn2)c2ccccc21 | -9.882 | 1.499 | 7.387
Cc1ccc(C(=O)NCCNS(C)(=O)=O)c(=O)[nH]1 | 2.858 | 7.056 | 0.527
CCN1CCN(S(=O)(=O)c2ncn(C)c2Cl)CC1 | 4.622 | -3.797 | 7.54
Cc1noc(C)c1C(=O)NCc1ccnc(OCC(F)(F)F)c1 | 20.18 | 3.989 | 3.82
O=C(NCC1CCN(C(=O)c2ccoc2)CC1)c1ccccc1Br | 1.968 | -0.2132 | 6.735
Cc1ccc(N2CCCN(C(=O)C(C(C)C)n3cncn3)CC2)nn1 (centres unmarked) | 3.144 | 10.79 | -4.36
CSCC(=O)N1C[C@H](c2ccc(C)o2)[C@@H](N)C1 | -11.02 | 1.434 | 0.6083
CCn1ncc2c(C(F)(F)F)cc(-c3ccn(C)n3)nc21 | -9.715 | 6.928 | -0.2895
CN(CCc1ccccc1)Cc1c(C2CCOCC2)[nH]c2ncccc12 | -8.04 | 11.86 | 1.474
COCCN1CCC(CNC(=O)Nc2ccc(F)c(Cl)c2)C1 (centres unmarked) | 6.116 | 6.367 | -4.399
CC(C)c1ncncc1C(=O)N1CCCN(Cc2ccccc2)CC1 | -2.707 | 0.9126 | 2.342
Cc1cccc(CN2CC[C@H]3[C@H]2CCN3Cc2cnn(C)c2)n1 | 5.841 | -4.595 | -7.285
O=C(NCCc1cccs1)[C@]12COC[C@H]1CN(c1ncccn1)C2 | -2.21 | 3.941 | 10.23
CC1(C)CC(N(Cc2ccccc2)Cc2cccnc2)CC(C)(C)N1 | -10.07 | 4.167 | 0.5052
O=C(Nc1ccccc1)N1CC(C(=O)N2CCCC2)C2(CCOCC2)C1 (centres unmarked) | 0.9019 | -7.505 | 7.588
FC(F)(F)C1CCc2nnc(CNCc3cccs3)n2C1 (centres unmarked) | -1.481 | 3.308 | -5.276
COc1ccc(-c2cn(CCSc3ncn[nH]3)nn2)cn1 | -0.1734 | 9.671 | 3.244
CC(=O)N1CCC(NC2(Cc3cc(CN(C)C)on3)COC2)CC1 | -8.185 | -0.6452 | 5.195
COc1cc2c(cc1CNC(Cc1cccs1)c1nccs1)OCCO2 (centres unmarked) | -7.776 | -6.57 | 0.5407
Cc1cc(C)n(CC2CCCN2C(=O)c2c(C)noc2C)n1 (centres unmarked) | -10.05 | -7.101 | -2.449
CC(C)(C)c1nc(CN(Cc2ccccc2F)C2CCCCC2)no1 | 3.998 | -10.86 | 1.38
CCOc1cc(CNC(=O)N2CCC(Cc3cnn(C)c3)C2)ccn1 (centres unmarked) | 5.902 | 3.886 | 4.525
Cc1cc(C)c(CNC(=O)N2CCCC2c2cccc(F)c2)c(=O)[nH]1 (centres unmarked) | 19.38 | 8.323 | 0.7163
Cc1nn(C)c2nc(N3CCNC(=O)C3Cc3ccccc3)sc12 (centres unmarked) | 2.16 | 8.068 | 5.297
CCCn1cc(NC(=O)c2ccc(N(C)CC)cc2)ccc1=O | -3.626 | 3.891 | 6.215
CC(NC(=O)c1cc2n(n1)CCCN(C)C2)c1cn2ccsc2n1 (centres unmarked) | -6.056 | 7.108 | 3.663
CCN(CC)CC[C@H]1CN(C(=O)NC2CCCCC2)CC[C@H]1CC(=O)O | -0.06435 | -3.386 | 2.679
O=C(Nc1cnc(Oc2ccccc2F)nc1)C1CC1 | -4.033 | 12.05 | 3.656
O=C(NCc1ccc(-n2cncn2)nc1)c1cc(Cl)c2c(c1)OCCO2 | -13.5 | -0.5821 | 1.63
Cc1cnn(CC(=O)N2CCC3(CCC(=O)N(CC(C)O)C3)CC2)c1 (centres unmarked) | -1.442 | -1.029 | 0.2461
c1cnc(N2CCCC3(COCCN(CC4CC4)C3)C2)nc1 (centres unmarked) | -0.463 | -11.73 | 6.344
CCC(C)N(Cc1ccsc1)C(=O)c1ccc(CO)cc1 (centres unmarked) | -15.85 | 3.704 | 0.5163
CCc1ccccc1OCCN(C)C(=O)CN1CCCC1 | -8.549 | -2.433 | 0.3263
CCC(=O)N1CCC(c2nc(N3CCCC3)ncc2S(C)(=O)=O)CC1 | 2.016 | -0.4566 | 0.1689
CCCNC(=O)C[S+]([O-])Cc1csc(C2CCCCC2)n1 (centres unmarked) | 0.5534 | 8 | -0.3578
CC(=O)c1cccc(NC(=O)Cn2cc(-c3ccccc3)ncc2=O)c1 | -8.801 | 1.533 | 0.4498
NC(=O)CN1CCC(c2cc(C(F)(F)F)n3ccnc3n2)CC1 | -140.7 | 1.942 | 4.446
CCc1nc(C)c([C@H]2CN(C)C[C@@H]2C(=O)NCc2ccccc2OC)[nH]1 | -2.259 | -15.58 | -1.565
Cc1nc(CN2CCC(N3CCN(C)C3=O)CC2)no1 | -12.54 | 0.5249 | -1.237
COCc1ncn(Cc2nc(-c3ccco3)oc2C)n1 | -15.74 | -3.639 | 5.921
Cc1cccnc1NC(=O)NCc1ccc(N2CCNC(=O)C2)cc1 | 0.5263 | 3.855 | 1.009
CNCc1n[nH]c(=O)n1-c1cccc(Cl)c1Cl | -10.97 | 7.143 | -3.306
Cc1n[nH]cc1CNC1(c2ccc(Br)cc2)CC1 | -0.7296 | 8.884 | 12.17

Some entries from above, unchanged:

{"compound": "O=C(Cc1cccnc1)NC1COc2ccccc2C1=O", "stereo": "centres unmarked", "ClpP1P2": -9.54, "CoaBC": -0.2066, "PfKRS1": 2.305}
{"compound": "CSCC(=O)N1C[C@H](c2ccc(C)o2)[C@@H](N)C1", "ClpP1P2": -11.02, "CoaBC": 1.434, "PfKRS1": 0.6083}
{"compound": "CCC(=O)N1CCC(c2nc(N3CCCC3)ncc2S(C)(=O)=O)CC1", "ClpP1P2": 2.016, "CoaBC": -0.4566, "PfKRS1": 0.1689}
{"compound": "NC(=O)c1cccnc1N1C[C@@H]2CC[C@H](C1)N(Cc1ccccn1)C2=O", "ClpP1P2": 0.9674, "CoaBC": 1.018, "PfKRS1": 11.75}
{"compound": "NC(=O)CN1CCC(c2cc(C(F)(F)F)n3ccnc3n2)CC1", "ClpP1P2": -140.7, "CoaBC": 1.942, "PfKRS1": 4.446}

Source: ChEMBL document CHEMBL3988442, “University of Dundee, Small-Polar-MMV Screening Library” (2021).